# In all, about 220,000 compounds went through this assay and about 2,400 (1.1%) were called active. The inconclusive results got no clear call from the source; some entries with a clear call stand among them for comparison. The call rests on the fitted dose curve; in most records, active means well fitted inhibition curve with a large enough effect; inconclusive means small, poorly fitted or top-dose-only effect, or effect the other way; inactive means no such curve, though single readings can be large or run the other way. Potencies beside an inconclusive call are fits to weak or partial responses and may not hold up.
# Assay: qHTS Multiplex Assay to Identify Dual Action Probes in a Cell Model of Huntington: Aggregate Formation (GFP); further: nearly all actives have a fitted effect of over 60% in size
# Details: PC12 HttQ103-GFP aggregates, Acumen cytometry, 40 h; activity change, negative = inhibition: at 46.1 µM (top of the series) unless noted
# Procedure, shortened: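 Huntingtin Q103 exon 1–GFP aggregates in induced PC12 cells (100 nM tebufenozide) were quantified by cytometry from lysates, with compounds dosed in titration.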
# On the % scale 0 is the no-effect control and ±100 the full control effect; potency means the concentration at half of the fitted maximal effect.
SMILES,Potency,"activity change, negative = inhibition"
CCN(CC)c1ccc(/C=N/NC(=O)c2ccco2)cc1,"inconclusive: 0.1 µM [inhibitor, partial curve, poor fit]",–
c1ccc(C2C/C(=N\N3CCOCC3)c3ccccc3O2)cc1 (stereo unspecified),"inconclusive: 35.5 µM [activator, partial curve, poor fit]",–
O=C(Nc1cccc(Cl)c1)OCc1cncs1,"inconclusive: 10 µM [inhibitor, single point]",–
Cc1cc(C(C)c2ccccc2)c(O)c(CN2CCOCC2)c1C (stereo unspecified),"inconclusive: 35.5 µM [inhibitor, single point]",–
COc1ccc(CCNS(=O)(=O)c2ccccc2)cc1OC,active: 3.55 µM,–
Cc1nn(Cc2c(Cl)cccc2Cl)c(Cl)c1/C=C/C(=O)OCC(=O)NCC(F)(F)F,"inconclusive: 0.562 µM [inhibitor, full curve]",–
Cc1ccc(C(=O)N/C(=C\c2ccc(-c3ccc(Br)cc3)o2)C(=O)NCCCN(C)C)cc1,"inconclusive: 35.5 µM [inhibitor, single point]",–
CC(=O)/C=C/n1c(=S)oc2ccccc21,active: 7.08 µM,–
O=C(CNC(=O)c1ccco1)OCC(=O)c1ccc(Cl)cc1Cl,–,inactive: 2.54% [at 9.22 µM]
O=c1cc(CO)oc(C(Nc2ccccn2)c2ccc(F)cc2)c1O (stereo unspecified),inactive,–
Cc1ccc(O)c(NC(=O)C2CC(c3ccc(F)cc3)=NO2)c1 (stereo unspecified),"inconclusive: 3.16 µM [activator, partial curve]",–
O=[N+]([O-])c1ccc(N2CCN(C(=S)Nc3ccc(F)cc3)CC2)cc1,"inconclusive: 3.16 µM [inhibitor, partial curve]",–
Cc1cc(S(=O)(=O)n2ccnc2)c(Cl)cc1Cl,"inconclusive: 3.98 µM [inhibitor, single point]",–
Cc1ccc(NC(=O)N2CCC(c3ccccc3)C2)cc1C (stereo unspecified),"inconclusive: 0.562 µM [activator, partial curve, poor fit]",–
O=C(Nc1ccc(Cl)c(Cl)c1)OCc1cccnc1,"inconclusive: 22.4 µM [inhibitor, single point]",–
Cc1ccc(NC(=O)C(NC2CCCC2)c2ccccc2)cc1Cl (stereo unspecified),"inconclusive: 14.1 µM [inhibitor, single point]",–
Cc1ccc(-c2nnn(CC(=O)Nc3ccccc3N3CCOCC3)n2)cc1,"inconclusive: 35.5 µM [inhibitor, single point]",–
Cc1ccc(-n2nc(C)c(NC(=O)CCl)c2C)cc1C,"inconclusive: 35.5 µM [inhibitor, single point]",–
CC(C)(C)NC(=O)NC(=O)CN1CCC(Cc2ccccc2)CC1,"inconclusive: 20 µM [inhibitor, single point]",–
COc1cc(C(CCN2CCCCC2)c2c(OC)cc(OC)c3c(-c4ccccc4)cc(=O)oc23)cc(OC)c1OC (stereo unspecified),–,inactive: 15% [at 9.22 µM]
CCN(CC)C(=O)CSC(=Nc1ccccc1F)NC#N,"inconclusive: 35.5 µM [activator, single point]",–
CCCCN1C2=NCCCN2c2cc(C)c(C)cc21,"inconclusive: 22.4 µM [inhibitor, single point]",–
Cc1ccc(N=CC2=C(O)CC(c3ccco3)CC2=O)cc1 (stereo unspecified),"inconclusive: 35.5 µM [inhibitor, single point]",–
CCNC(=O)Nn1c(-c2ccccc2)nc2ccccc2c1=O,"inconclusive: 10 µM [activator, partial curve]",–

SMILES,Potency,"activity change, negative = inhibition"
C=CCNC(=O)c1ccccc1NC(=O)Cc1ccccc1[N+](=O)[O-],inactive,–
CCCC1CCc2c(sc(N)c2C(N)=O)C1 (stereo unspecified),inactive,–
COc1ccccc1OCc1ccc(C(=O)NN)o1,–,inactive: 10.6% [at 9.22 µM]
O=C(CCN1CCc2ccccc21)c1ccc2c(c1)OCCO2,"inconclusive: 10 µM [inhibitor, single point]",–
CCOC(=O)c1c(CN2CCN(CCO)CC2)n(C)c2cc(Br)c(OC)cc12,"inconclusive: 11.2 µM [activator, partial curve]",–
COc1ccc(-c2c(C)nn(-c3ccccc3)c2N)cc1,–,inactive: -6.42% [at 1.84 µM]
CC(C)Cn1c(=O)c(C(=O)NCc2ccccn2)c(O)c2ccccc21,active: 7.94 µM,–
CC(=O)c1cccc(NC(=O)Nc2ccc3c(c2)N(C)C(=O)CS3)c1,"inconclusive: 14.1 µM [inhibitor, partial curve]",–
CC1(C)Cc2c(sc3c2c(=N)n(Cc2ccco2)c(=O)n3Cc2ccc(Cl)cc2)CO1,active: 17.8 µM,–
CN(C)c1nc(OCCNC(=O)COc2ccccc2Cl)nc(N(C)C)n1,inactive,–
CCCN(CCC)c1ncnc2nc[nH]c12,active: 7.94 µM,–
COc1ccc(CN(C)C(C)C(=O)Nc2ccc([N+](=O)[O-])cc2Cl)cc1OC (stereo unspecified),"inconclusive: 14.1 µM [inhibitor, single point]",–
Cc1ccc(C(=O)c2cnc3cc4c(cc3c2S(=O)(=O)c2ccccc2)OCCO4)cc1,"inconclusive: 5.62 µM [inhibitor, single point]",–
COc1cc2nc(C3CCC3)nc(N3CCN(c4ccccn4)CC3)c2cc1OC,"inconclusive: 35.5 µM [inhibitor, single point]",–
Cn1c(=O)c2c(nc(SCCCC#N)n2Cc2ccccc2F)n(C)c1=O,inactive,–
O=C1C2C3C=CC(CC3)C2C(=O)N1/N=C/c1ccc(O)c(O)c1 (stereo unspecified),"inconclusive: 8.91 µM [inhibitor, partial curve]",–
O=C(C1CCC(CNS(=O)(=O)c2cccc3cccnc23)CC1)N1CCc2ccccc21 (stereo unspecified),"inconclusive: 14.1 µM [inhibitor, single point]",–
COCc1cc([C@@H]2C[C@H]3CN(c4ccccc4)C(=O)[C@]34CCCN24)ccc1OC,active: 31.6 µM,–
COc1ccc(O)c(/C=N/NC(=S)Nc2cccnc2)c1,active: 12.6 µM,–
CCC(=O)n1nc(-c2ccco2)nc1N,inactive,–
CCc1ccc(NC(=O)Cn2c3[n+](c4c(F)c(F)ccc42)CCCCC3)cc1,inactive,–
CCOc1ccc(OCC)c(NC(=O)Cn2cccc2)c1,"inconclusive: 3.16 µM [inhibitor, partial curve]",–
Cc1ccc(N/N=C2\CC(=O)c3ccccc32)cc1Cl,–,inactive: -24% [at 9.22 µM]
COc1c(N2CCN(C(=S)Nc3ccc(F)cc3)C(C)C2)c(F)cc2c(=O)c(C(=O)O)cn(C3CC3)c12 (stereo unspecified),inactive,–

# Three entries already listed, sorted by molecular weight, rising:
SMILES,Potency,"activity change, negative = inhibition"
CCC(=O)n1nc(-c2ccco2)nc1N,inactive,–
CCCN(CCC)c1ncnc2nc[nH]c12,active: 7.94 µM,–
COCc1cc([C@@H]2C[C@H]3CN(c4ccccc4)C(=O)[C@]34CCCN24)ccc1OC,active: 31.6 µM,–

# More records:

SMILES,Potency,"activity change, negative = inhibition"
O=Cc1ccc(Sc2nnc(-c3ccccc3)o2)c([N+](=O)[O-])c1,"inconclusive: 35.5 µM [inhibitor, single point]",–
COC(=O)c1ccc(/C=C2/SC(=S)N(CCCC(=O)Nc3ccccn3)C2=O)cc1,"inconclusive: 35.5 µM [inhibitor, single point]",–
CN1CCN(c2ccc([N+](=O)[O-])c(-n3nc(-c4ccccc4)c4ccccc4c3=O)c2)CC1,"inconclusive: 35.5 µM [inhibitor, single point]",–
Cn1nc(C(F)(F)F)c(/C=N/OC(=O)c2ccccc2Cl)c1SCc1ccccc1Cl,active: 10 µM,–
CC(NC(=O)c1ccc(CS(=O)(=O)c2ccc(Cl)cc2)o1)c1ccc2c(c1)OCCO2 (stereo unspecified),–,inactive: -3.92% [at 9.22 µM]
Cc1cccc(C(OC(=O)c2ccco2)C(=O)NCc2ccccc2)n1 (stereo unspecified),inactive,–
Cn1ncc(Br)c1C(=O)NCc1cccs1,"inconclusive: 11.2 µM [inhibitor, partial curve]",–
COc1ccc(C2CC(c3ccccc3)=NN2C(=O)CN2CCN(Cc3ccccc3)CC2)cc1 (stereo unspecified),"inconclusive: 35.5 µM [inhibitor, single point]",–
CCOc1ccc(-c2nnc(N3CCCCC3)c3ccccc23)cc1,active: 11.2 µM,–
CC(C)C(C)(C#N)NC(=O)CSc1nc2scc(-c3ccco3)c2c(=O)n1-c1ccccc1 (stereo unspecified),"inconclusive: 3.16 µM [inhibitor, single point]",–
CCOc1nc(SC(C(C)=O)C(=O)Nc2ccccc2)nc(N(C)C)n1 (stereo unspecified),inactive,–
O=C1CC(c2ccc(OCCCCCOc3ccc(C4CC(=O)NC4=O)cc3)cc2)C(=O)N1 (stereo unspecified),–,inactive: -1.1% [at 9.22 µM]
Nc1cc(Cl)ccc1Oc1ccc2ccccc2c1,"inconclusive: 7.94 µM [inhibitor, partial curve]",–
Cc1ccc(NC(=O)COC(=O)CN2C(=O)c3ccccc3C2=O)cc1S(=O)(=O)N(C)C,inactive,–
CN1/C(=C\C=O)C(C)(C)c2ccccc21,"inconclusive: 35.5 µM [inhibitor, single point]",–
O=C(COC(=O)Cc1ccccc1F)Nc1cc(S(=O)(=O)N2CCOCC2)ccc1N1CCCC1,inactive,–
COc1ccc2c(c1)c1ncn(Cc3ccco3)c(=O)c1n2C,active: 10 µM,–
CC(=O)N[C@@H]1C(O[C@H]2O[C@H](C(=O)O)C(O)[C@H](O)[C@H]2O)[C@H](O)[C@@H](CO)O[C@H]1O[C@@H]1C(C(=O)O)O[C@@H](O[C@H]2[C@H](O)[C@@H](CO)OC(O)[C@@H]2NC(C)=O)[C@H](O)[C@H]1O (stereo partly specified),inactive,–
COC(=O)c1cc(NC(=O)CSC2=NCCS2)cc(C(=O)OC)c1,inactive,–
COc1ccc(-c2cc(C(=O)NCCc3ccc(S(N)(=O)=O)cc3)c3ccccc3n2)cc1,"inconclusive: 0.562 µM [activator, full curve, poor fit]",–
O=C(CSc1nncs1)Nc1ccc(Cl)cn1,"inconclusive: 1.58 µM [activator, partial curve]",–
NC(=O)c1ccccc1NC(=O)c1ccccc1F,"inconclusive: 0.562 µM [inhibitor, single point]",–
CCCn1nc2cc(C(=O)NCc3ccc(OC)cc3)ccc2c1OCC,inactive,–

# 4 entries from above, tab-delimited:
SMILES	Potency	activity change, negative = inhibition
Cc1ccc(-c2nnn(CC(=O)Nc3ccccc3N3CCOCC3)n2)cc1	inconclusive: 35.5 µM [inhibitor, single point]	–
CCNC(=O)Nn1c(-c2ccccc2)nc2ccccc2c1=O	inconclusive: 10 µM [activator, partial curve]	–
COc1ccc(-c2c(C)nn(-c3ccccc3)c2N)cc1	–	inactive: -6.42% [at 1.84 µM]
Nc1cc(Cl)ccc1Oc1ccc2ccccc2c1	inconclusive: 7.94 µM [inhibitor, partial curve]	–

# Reference: PubChem BioAssay AID1688 (National Center for Advancing Translational Sciences (NCATS), 2009)
